Experimental data: publication PMC4215715
No constants are given. Whether binding was seen depends on the method and setting. In cells and extracts the contact can be indirect. Some results given as binding are weak or reduced against the parent protein; the word gives no strength. One block for each binder: values may come before it.

Sequences of proteins named here, by UniProt entry; tags and fusion partners are left off.
UniProt P46379: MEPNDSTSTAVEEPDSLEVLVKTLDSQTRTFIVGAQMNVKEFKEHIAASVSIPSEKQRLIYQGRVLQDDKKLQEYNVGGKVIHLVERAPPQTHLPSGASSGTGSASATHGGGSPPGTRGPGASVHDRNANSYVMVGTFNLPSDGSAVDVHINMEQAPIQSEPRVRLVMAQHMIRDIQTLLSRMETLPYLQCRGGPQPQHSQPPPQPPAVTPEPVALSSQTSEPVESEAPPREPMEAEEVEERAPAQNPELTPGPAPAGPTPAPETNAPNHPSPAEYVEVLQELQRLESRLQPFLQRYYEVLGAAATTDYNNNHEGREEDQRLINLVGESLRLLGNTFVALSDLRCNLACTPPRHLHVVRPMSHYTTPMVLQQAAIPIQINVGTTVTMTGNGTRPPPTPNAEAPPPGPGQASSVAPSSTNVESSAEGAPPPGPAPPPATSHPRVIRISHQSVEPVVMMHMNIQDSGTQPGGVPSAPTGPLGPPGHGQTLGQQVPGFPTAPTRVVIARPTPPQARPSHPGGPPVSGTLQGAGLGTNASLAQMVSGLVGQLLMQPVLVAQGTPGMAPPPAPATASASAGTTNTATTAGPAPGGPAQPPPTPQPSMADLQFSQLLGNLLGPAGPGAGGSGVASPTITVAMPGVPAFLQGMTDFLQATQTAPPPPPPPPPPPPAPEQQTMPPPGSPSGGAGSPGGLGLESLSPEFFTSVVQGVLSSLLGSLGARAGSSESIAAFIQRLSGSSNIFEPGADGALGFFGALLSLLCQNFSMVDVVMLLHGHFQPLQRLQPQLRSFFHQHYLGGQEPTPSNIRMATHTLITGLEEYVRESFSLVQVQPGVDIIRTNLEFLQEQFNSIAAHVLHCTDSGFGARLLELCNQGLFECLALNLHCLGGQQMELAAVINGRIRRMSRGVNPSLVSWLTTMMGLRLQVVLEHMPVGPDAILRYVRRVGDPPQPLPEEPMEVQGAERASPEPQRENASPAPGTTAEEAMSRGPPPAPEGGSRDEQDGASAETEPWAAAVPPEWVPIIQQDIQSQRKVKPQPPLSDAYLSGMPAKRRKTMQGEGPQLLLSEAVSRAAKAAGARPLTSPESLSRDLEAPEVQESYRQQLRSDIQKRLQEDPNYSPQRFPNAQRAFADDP
UniProt O43765: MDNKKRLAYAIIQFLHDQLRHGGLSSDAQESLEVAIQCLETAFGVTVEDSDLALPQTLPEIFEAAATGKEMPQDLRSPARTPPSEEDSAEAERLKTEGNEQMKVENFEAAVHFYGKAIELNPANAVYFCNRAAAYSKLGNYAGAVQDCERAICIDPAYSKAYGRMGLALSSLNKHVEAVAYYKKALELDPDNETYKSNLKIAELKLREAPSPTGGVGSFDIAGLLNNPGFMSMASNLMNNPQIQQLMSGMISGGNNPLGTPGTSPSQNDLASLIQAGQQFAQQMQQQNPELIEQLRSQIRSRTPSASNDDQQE

Experiments:
[1] = target: BAG6–V5 (UniProt P46379); assay: co-IP; HeLaM cells co-transfected with the OPG–TASK85 variant and BAG6–V5 or SGTA–V5; 24 h later 1 mM DSP (cleavable cross-linker) or DMSO for 15 min at room temperature, quenched with 10 mM glycine; lysis in 10 mM Tris-HCl pH 7.4, 150 mM NaCl, 1 mM EDTA, 0.5% DDM; IP with anti-V5 or anti-opsin and Protein-A–Sepharose; western blot
[2] = target: SGTA–V5 (UniProt O43765); assay: as above
[3] = target: HisTrx–SGTA (UniProt O43765); assay: pull-down; OPG–TASK85 variant translated in reticulocyte lysate with 35S-methionine/cysteine in the presence of 2 µM HisTrx–SGTA or HisTrx; puromycin; Ni-NTA agarose in 50 mM HEPES-KOH pH 7.5, 300 mM NaCl, 50 mM imidazole, 10% glycerol, 2 h at 4°C; elution with 500 mM imidazole; phosphorimaging; only the target purified

binding [1]: binds
binding [2]: binds
B1: OPG–TASK85 (domain or fragment, UniProt O14649 2-60)
chain: KRQNVRTLALIVVTFTYLLVGAAVFDALESEPELIERQRLELRQQELRARYNLSQGGYE

binding [3]: binds
B2: OPG–TASK85 (in-vitro-synthesised) (domain or fragment, UniProt O14649 2-60)
chain: B1 chain
modifications: 35S-methionine/cysteine label
